Data taken from patent publication US10563263B2, “Genetic polymorphisms associated with statin response and cardiovascular diseases, methods of detection and uses thereof” (CELERA CORPORATION, priority 2010, dated 2020).
Further values from the same series stand in other lists.

Tested on: CVD (CHD or stroke)
Test: WOSCOPS: SNP by pravastatin treatment interaction, logistic regression (synergy index), CVD endpoint
Format: in vivo, human
Excerpt: CARE was a secondary prevention trial and WOSCOPS was a primary prevention trial.
The CHD endpoint was defined in the analyses herein of CARE as a composite endpoint of fatal CHD, definite non-fatal MI, or revascularization, and was defined in the analyses herein of WOSCOPS as a composite endpoint of death from CHD, nonfatal MI, or revascularization. In both the CARE and WOSCOPS analyses herein, the CVD endpoint was defined as a composite endpoint of CHD or stroke. […] Revascularization, which can include percutaneous transluminal coronary angioplasty (PTCA), stent placement, and coronary artery bypass graft (CABG), are medical interventions that indicate the presence of CHD.
Cohort and case-only study designs were used to identify SNPs associated with response to statin treatment.
For each SNP, a logistic regression model having treatment status as the dependent variable and SNP as the independent predictor variable was performed, with terms for age, sex and race included in the model as covariates. The anti-log of the regression coefficient corresponding to the SNP is an estimate of the synergy index (SI) (Davis et al., “Imputing gene-treatment interactions when the genotype distribution is unknown using case-only and putative placebo analyses-a new method for the Genetics of Hypertension Associated Treatment (GenHAT) study”, Statistics in Medicine 23: (2004), pages 2413-2427). The SI is a ratio of odds ratios: for example in the CARE and WOSCOPS studies, the SI represents the factor by which the odds-ratio of statin treatment, compared with placebo, among major homozygous individuals is multiplied by in order to obtain the odds-ratio of treatment vs. placebo among heterozygous individuals; and multiplied by a second time to obtain the odds-ratio of treatment vs. placebo in minor homozygous individuals. […] In a randomized clinical trial, genotype and treatment are independent by design.

CC[C@H](C)C(=O)O[C@H]1C[C@H](O)C=C2C=C[C@H](C)[C@H](CC[C@@H](O)C[C@@H](O)CC(=O)O)[C@H]21 [Pravastatin, pravastatin]
OR (WOSCOPS, rs7557560, allele T, REC, Imputed): 6.446 | OR (WOSCOPS, rs7562462, allele T, DOM, Imputed): 1.588 | OR (WOSCOPS, rs7607447, allele T, REC, Imputed): 1.964 | OR (WOSCOPS, rs7639053, allele A, ADD, Imputed): 1.6 | OR (WOSCOPS, rs7648163, allele C, REC, Imputed): 2.989 | OR (WOSCOPS, rs7653190, allele C, ADD, Imputed): 1.616 | OR (WOSCOPS, rs7653685, allele C, DOM, Genotyped): 2.42 | OR (WOSCOPS, rs7684899, allele C, DOM, Imputed): 0.6667 | OR (WOSCOPS, rs7701604, allele G, ADD, Imputed): 0.235 | OR (WOSCOPS, rs7701604, allele G, DOM, Imputed): 0.235 | OR (WOSCOPS, rs7703676, allele C, ADD, Imputed): 0.235 | OR (WOSCOPS, rs7703676, allele C, DOM, Imputed): 0.235 | OR (WOSCOPS, rs7711358, allele A, DOM, Imputed): 0.6113 | OR (WOSCOPS, rs7713251, allele C, REC, Imputed): 2.559 | OR (WOSCOPS, rs7737608, allele G, DOM, Imputed): 1.5 | OR (WOSCOPS, rs7762993, allele A, ADD, Imputed): 1.373 | OR (WOSCOPS, rs7762993, allele A, DOM, Imputed): 1.537 | OR (WOSCOPS, rs7767265, allele G, DOM, Imputed): 1.53 | OR (WOSCOPS, rs7771264, allele T, DOM, Imputed): 0.5507 | OR (WOSCOPS, rs7795792, allele T, REC, Imputed): 0.4161 | OR (WOSCOPS, rs7806481, allele G, REC, Imputed): 0.628 | OR (WOSCOPS, rs7808536, allele G, DOM, Imputed): 1.952 | OR (WOSCOPS, rs7814819, allele G, ADD, Imputed): 1.743 | OR (WOSCOPS, rs7814819, allele G, DOM, Imputed): 1.939 | OR (WOSCOPS, rs7815952, allele T, DOM, Imputed): 2.739 | OR (WOSCOPS, rs7834090, allele T, DOM, Imputed): 2.739 | OR (WOSCOPS, rs7859250, allele C, DOM, Imputed): 0.4711 | OR (WOSCOPS, rs7863577, allele A, ADD, Genotyped): 0.5916 | OR (WOSCOPS, rs7863577, allele A, DOM, Genotyped): 0.5571 | OR (rs152707 allele A, ADD model, Imputed): 0.7681 | OR (rs152712 allele C, ADD model, Genotyped): 0.7606 | OR (rs208026 allele A DOM, Genotyped): 1.516 | OR (rs208029 allele T DOM, Imputed): 1.45 | OR (rs208757 allele G DOM, Imputed): 1.473 | OR (rs229775 allele A REC, Imputed): 0.5915 | OR (rs229815 allele T REC, Imputed): 0.5493 | OR (rs229829 allele C REC, Imputed): 0.6223 | OR (rs229831 allele A REC, Imputed): 0.646 | OR (rs238252 allele G ADD, Imputed): 1.531 | OR (rs238252 allele G DOM, Imputed): 1.593 | OR (rs710832, allele A (A1), model REC, Genotyped, WOSCOPS): 0.256 | OR (rs742827, allele A (A1), model ADD, Imputed, WOSCOPS): 1.374 | OR (rs742827, allele A (A1), model REC, Imputed, WOSCOPS): 1.393 | OR (rs892575, Imputed, allele T, ADD model, WOSCOPS): 1.417 | OR (rs892583, Imputed, allele G, ADD model, WOSCOPS): 1.437 | OR (rs915494, Imputed, allele A, ADD model, WOSCOPS): 1.204 | OR (rs915494, Imputed, allele A, DOM model, WOSCOPS): 1.279 | OR (rs917295, Imputed, allele G, DOM model, WOSCOPS): 0.6021 | OR (rs922594, Imputed, allele T, DOM model, WOSCOPS): 0.5825 | OR (rs937890, Imputed, allele G, DOM model, WOSCOPS): 0.7037 | OR (rs949016, Imputed, allele C, ADD model, WOSCOPS): 1.437 | OR (rs966583, Imputed, allele A, ADD model, WOSCOPS): 0.7239 | OR (rs966583, Imputed, allele A, DOM model, WOSCOPS): 0.6175 | OR (rs974130, Genotyped, allele A, REC model, WOSCOPS): 2.214 | OR (rs977160, Imputed, allele T, ADD model, WOSCOPS): 1.378 | OR (rs1116596 allele T, DOM model, Imputed, WOSCOPS): 0.7035 | OR (rs1149349 allele T, DOM model, Imputed, WOSCOPS): 1.606 | OR (rs1149350 allele A, ADD model, Imputed, WOSCOPS): 1.546 | OR (rs1149350 allele A, DOM model, Imputed, WOSCOPS): 1.835 | OR (rs1429321 allele A, DOM model, Imputed): 1.545 | OR (rs1429326 allele T, ADD model, Imputed): 1.514 | OR (rs1429326 allele T, DOM model, Imputed): 1.573 | OR (rs1444741 allele A, DOM model, Imputed): 0.5155 | OR (rs1449916 allele C, DOM model, Imputed): 0.4287 | OR (rs1459523 allele A, ADD model, Imputed): 1.45 | OR (rs1476714 allele A, DOM model, Imputed): 0.6887 | OR (rs1486723 allele C, REC model, Imputed): 0.6161 | OR (rs1495375 allele A, ADD model, Imputed): 0.6996 | OR (rs1495375 allele A, DOM model, Imputed): 0.6354 | OR (rs1495381 allele T, REC model, Imputed): 1.661 | OR (rs1498061 allele C, ADD model, Imputed): 0.614 | OR (rs1498992 allele G, DOM model, Imputed): 0.7209 | OR (rs1499001 allele T, DOM model, Imputed): 0.7112 | OR (rs1512988 allele A, ADD model, Imputed): 0.6768 | OR (rs1512988 allele A, DOM model, Imputed): 0.6068 | OR (rs1512989 allele T, ADD model, Imputed): 0.6768 | OR (rs1512989 allele T, DOM model, Imputed): 0.6068 | OR (rs1512991 allele T, ADD model, Imputed): 0.7609 | OR (rs1512991 allele T, DOM model, Imputed): 0.5996 | OR (rs1524306 allele C, ADD model, Imputed): 1.457 | OR (rs1524310 allele G, ADD model, Imputed): 1.471 | OR (rs1527059 allele A, DOM model, Imputed): 0.7558 | OR (rs1535866 allele G, DOM model, Imputed): 1.83 | OR (rs1567740 allele T, ADD model, Imputed): 0.6776 | OR (rs1567740 allele T, DOM model, Imputed): 0.6103 | OR (rs1572573 allele A, DOM model, Imputed): 1.458 | OR (rs1577497 allele C, REC model, Imputed): 0.5999 | OR (rs1581514 allele T, ADD model, Imputed): 1.482 | OR (rs1582321 allele T, DOM model, Imputed): 0.6673 | OR (rs1582322 allele A, DOM model, Imputed): 0.6832 | OR (rs1582323 allele A, DOM model, Imputed): 0.6891 | OR (rs1592485 allele C, DOM model, Imputed): 0.6849 | OR (rs1600954 allele T, ADD model, Imputed): 1.458 | OR (rs1705261 allele A, REC model, Imputed): 1.6 | OR (rs1832222 allele G, DOM model, Imputed): 1.458 | OR (rs1861327 allele G DOM, Imputed): 0.6673 | OR (rs1868581 allele G ADD, Imputed): 1.471 | OR (rs1874313 allele A ADD, Imputed): 0.671 | OR (rs1874313 allele A DOM, Imputed): 0.5994 | OR (rs1876409 allele C DOM, Imputed): 0.6523 | OR (rs1913201 allele G ADD, Imputed): 0.7714 | OR (rs1913201 allele G DOM, Imputed): 0.5986 | OR (rs1936871 allele G DOM, Genotyped): 0.7159 | OR (rs1961157 allele T REC, Imputed): 0.4785 | OR (rs1987179 allele T ADD, Imputed): 0.7399 | OR (rs1987179 allele T DOM, Imputed): 0.6359 | OR (rs1990023 allele T DOM, Imputed): 0.7035 | OR (rs1995025 allele C DOM, Imputed): 1.335 | OR (rs2016194 allele G DOM, Imputed): 0.6887 | OR (rs2023651 allele T ADD, Imputed): 0.5946 | OR (rs2024902 allele A ADD, Imputed): 1.964 | OR (rs2024902 allele A DOM, Imputed): 2.136 | OR (rs2025107 allele A DOM, Imputed): 2.24 | OR (rs2025108 allele T DOM, Imputed): 2.069 | OR (rs2052428 allele C DOM, Imputed): 0.6505 | OR (rs2053230 allele C ADD, Imputed): 0.6927 | OR (rs2062448 allele T DOM, Imputed): 0.5357 | OR (rs2063420 allele C REC, Imputed): 1.886 | OR (rs2063591 allele C ADD, Imputed): 0.7822
